# Experimental data reported in article PMC9013909.
# No constants are given. Whether binding was seen depends on the method and setting. Binding seen in cells or lysates may run through a third protein. A result given as binding can be weak or reduced; the word gives no strength. Sequences can lack the tags named with a protein.
# Tests used:
# [1] = target: T1, SCI1-GFP (Nicotiana tabacum); assay: co-IP; stigma/style extract of 35Sprom::SCI1-GFP plants mixed with E. coli extract of HIS-14-3-3D2; monoclonal anti-GFP, 4°C 2 h, Protein G Sepharose; six washes; immunoblot anti-HIS or anti-HIS-SCI1
# T1 sequence: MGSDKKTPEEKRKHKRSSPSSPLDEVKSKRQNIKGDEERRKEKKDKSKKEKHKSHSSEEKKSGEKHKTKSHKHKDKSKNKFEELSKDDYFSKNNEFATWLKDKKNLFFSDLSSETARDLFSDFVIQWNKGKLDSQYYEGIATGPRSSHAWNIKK
# [2] = target: T2, GST-SCI1 (Nicotiana tabacum); assay: pull-down; E. coli soluble extracts mixed and incubated overnight at 4°C with Glutathione Sepharose 4 FastFlow; washed three times with PBS + 1 mM PMSF; immunoblot anti-GST or anti-HIS
# T2 sequence: T1 sequence
# [3] = target: T3, SCI1-nGFP (BiFC fusion) (Nicotiana tabacum); assay: split reporter; BiFC with split GFP (nGFP 1-149, cGFP 150-238), 35S promoter, transient expression in N. benthamiana leaves, confocal microscopy with DAPI; SCI1 with 14-3-3D seen only in cells at G2/prophase
# T3 sequence: T1 sequence
Substance,binding [1],binding [2],binding [3]
HIS-14-3-3D2 (Nicotiana tabacum),binds,binds,–
14-3-3D-nGFP / 14-3-3D-cGFP (BiFC fusions) (Nicotiana tabacum),–,–,binds
